## Library screen at single concentrations

Chains of the proteins cited; added tags and fusions are not shown. Residues count along the entry.
UniProt Q8IDJ8, 1-583: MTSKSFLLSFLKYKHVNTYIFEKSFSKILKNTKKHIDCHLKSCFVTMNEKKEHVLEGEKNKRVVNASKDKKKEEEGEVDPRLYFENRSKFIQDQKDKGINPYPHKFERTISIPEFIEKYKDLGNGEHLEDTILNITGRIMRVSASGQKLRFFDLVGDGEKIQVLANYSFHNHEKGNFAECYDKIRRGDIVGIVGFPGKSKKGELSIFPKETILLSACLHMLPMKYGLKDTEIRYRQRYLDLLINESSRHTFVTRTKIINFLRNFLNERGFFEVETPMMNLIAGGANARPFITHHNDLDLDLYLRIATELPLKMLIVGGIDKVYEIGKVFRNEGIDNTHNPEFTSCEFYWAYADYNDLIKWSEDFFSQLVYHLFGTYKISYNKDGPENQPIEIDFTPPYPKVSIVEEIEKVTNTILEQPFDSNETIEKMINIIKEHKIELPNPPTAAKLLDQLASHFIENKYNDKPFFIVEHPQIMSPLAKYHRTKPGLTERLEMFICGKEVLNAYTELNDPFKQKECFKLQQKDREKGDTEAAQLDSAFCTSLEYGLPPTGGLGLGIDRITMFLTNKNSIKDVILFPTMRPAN
UniProt A4I591, 1-473: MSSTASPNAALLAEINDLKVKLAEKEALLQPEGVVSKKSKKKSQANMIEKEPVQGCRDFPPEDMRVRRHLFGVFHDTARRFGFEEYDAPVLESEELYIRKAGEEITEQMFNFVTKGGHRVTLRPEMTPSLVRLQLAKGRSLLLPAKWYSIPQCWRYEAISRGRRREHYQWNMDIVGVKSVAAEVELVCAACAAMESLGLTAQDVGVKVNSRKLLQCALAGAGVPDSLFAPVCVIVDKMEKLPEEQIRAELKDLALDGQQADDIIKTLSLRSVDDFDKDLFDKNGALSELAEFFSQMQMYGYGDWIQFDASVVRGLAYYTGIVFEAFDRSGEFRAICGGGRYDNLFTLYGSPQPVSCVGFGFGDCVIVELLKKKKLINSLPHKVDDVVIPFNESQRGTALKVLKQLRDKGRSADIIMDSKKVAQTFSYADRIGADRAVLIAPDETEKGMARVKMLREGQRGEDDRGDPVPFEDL
UniProt Q4DA54, 1-478: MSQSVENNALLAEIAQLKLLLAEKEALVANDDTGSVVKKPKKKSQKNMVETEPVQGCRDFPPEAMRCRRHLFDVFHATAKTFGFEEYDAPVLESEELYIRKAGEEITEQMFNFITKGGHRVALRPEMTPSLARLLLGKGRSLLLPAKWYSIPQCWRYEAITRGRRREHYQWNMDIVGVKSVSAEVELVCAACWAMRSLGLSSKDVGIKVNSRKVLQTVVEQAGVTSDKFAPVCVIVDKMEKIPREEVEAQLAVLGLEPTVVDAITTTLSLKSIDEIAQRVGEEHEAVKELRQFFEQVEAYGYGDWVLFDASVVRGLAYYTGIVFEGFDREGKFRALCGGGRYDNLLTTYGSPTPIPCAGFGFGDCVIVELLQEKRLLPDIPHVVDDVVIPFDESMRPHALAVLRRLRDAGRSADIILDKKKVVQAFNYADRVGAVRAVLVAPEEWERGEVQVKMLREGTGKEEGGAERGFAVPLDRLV
UniProt P9WPC5, whole entry: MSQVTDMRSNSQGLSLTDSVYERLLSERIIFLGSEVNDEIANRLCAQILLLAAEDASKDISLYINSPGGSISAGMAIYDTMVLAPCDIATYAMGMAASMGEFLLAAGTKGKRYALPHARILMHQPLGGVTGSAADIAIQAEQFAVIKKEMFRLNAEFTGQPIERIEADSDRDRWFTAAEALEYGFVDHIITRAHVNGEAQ
UniProt P9WPC3, whole entry partner: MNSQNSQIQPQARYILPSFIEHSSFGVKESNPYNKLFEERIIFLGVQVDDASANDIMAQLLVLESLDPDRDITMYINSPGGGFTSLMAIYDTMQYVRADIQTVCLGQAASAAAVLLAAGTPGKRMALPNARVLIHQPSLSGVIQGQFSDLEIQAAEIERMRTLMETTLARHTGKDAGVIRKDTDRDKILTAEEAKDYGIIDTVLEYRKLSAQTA

From ChEMBL document CHEMBL3988442, “University of Dundee, Small-Polar-MMV Screening Library” (2021).

Results are given as percent effect.
How 0% and 100% were set is not recorded. Most values in the screen are low, and negative values occur.
The compounds are a random part of those screened.
A dash means the value is not listed here; it may have been measured.

PfKRS1: 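Enzyme assay of the cytosolic lysyl-tRNA synthetase in 384-well plates, read by luminescence. Target: Lysine-tRNA ligase, Plasmodium falciparum 3D7 (UniProt Q8IDJ8). Compounds at 30 µM. Direction is inferred from only a few compounds that gave an IC50; most scored high, so higher reads as stronger inhibition. Size under these conditions: about 69,000 compounds, about 49 of them at 50% or above in at least one test.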
LiHisRS: 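Histidine-tRNA ligase, Leishmania infantum (UniProt A4I591). Enzyme assay of histidyl-tRNA synthetase; the read-out is not stated. Concentration: 30 µM. The record gives no direction; compounds that gave an IC50 in retests scored well above the rest, so higher reads as stronger inhibition. The assay is labelled LdHisRS but filed under L. infantum. Of about 69,000 compounds tested this way, about 410 (0.6%) reached 50% or more in at least one test.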
TcHisRS: 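Histidine-tRNA ligase, Trypanosoma cruzi CL Brener (UniProt Q4DA54). Enzyme assay of histidyl-tRNA synthetase; the read-out is not stated. Concentration: 30 µM. The record gives no direction; compounds that gave an IC50 in retests scored well above the rest, so higher reads as stronger inhibition. Size under these conditions: about 69,000 compounds, about 31 of them at 50% or above in at least one test.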
Leishmania in macrophages: 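Cell assay of Leishmania donovani living inside macrophages; the read-out is not stated. Concentration: 30 µM. Higher reads as stronger inhibition (inferred: compounds with an IC50 in retests scored well above the rest). About 69,000 compounds were tested under these conditions; 1.5% (about 1,000) showed 50% or more at least once.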
ClpP1P2: 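ClpP1P2, Mycobacterium tuberculosis (UniProt P9WPC5 and UniProt P9WPC3). Protease assay of ClpP1P2, read by the AMC dye that it sets free. Concentration: 50 µM. Direction is inferred from only a few compounds that gave an IC50; most scored high, so higher reads as stronger inhibition. Most other retested compounds had strongly negative values. Of about 69,000 compounds tested this way, about 10 (0.015%) reached 50% or more in at least one test.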

O=C(O)C(F)(F)F.O=C(O)C(F)(F)F.c1ccc(O[C@H]2CO[C@@]3(CCCN(Cc4nccs4)C3)C2)nc1 read Leishmania in macrophages: -51.81%. With CN(C)CC(=O)N1CCOCC2(C1)CN(c1ccccc1)C(=O)CO2 (stereo not drawn) the screen gave PfKRS1: 1.97%; LiHisRS: 15.09%; TcHisRS: 1.622%; Leishmania in macrophages: 6.417%; ClpP1P2: -3.038%. Result for Cc1ccc2ncnc(N3CCOCC3c3c(C)nn(C)c3C)c2c1 (stereo not drawn) was PfKRS1: 1.201%; LiHisRS: 14.56%; TcHisRS: 1.245%; Leishmania in macrophages: 1.752%; ClpP1P2: 3.639%. COc1ccc(-c2csc(N)c2C#N)cc1OC read PfKRS1: 7.219%; LiHisRS: 3.883%; TcHisRS: 2.732%; Leishmania in macrophages: 27.98%; ClpP1P2: -2.837%. With O=C(O)C(F)(F)F.[H][C@@]12CN(C(=O)[C@H]3CCCO3)C[C@]1([H])C(=O)N(CCN1CCCC1)C2 the screen gave Leishmania in macrophages: 2.778%.

Result for O=C(c1ccc[nH]1)N1CCOCC12CCCC2 was PfKRS1: -2.511%; LiHisRS: -5.319%; TcHisRS: -1.01%; Leishmania in macrophages: 3.888%; ClpP1P2: -9.726%. With O=C(CO)N1CCCC2(CCC(=O)N(CC3CC3)C2)C1 (stereo not drawn) the screen gave PfKRS1: 2.713%; LiHisRS: -4.082%; TcHisRS: 1.026%; Leishmania in macrophages: 26.11%; ClpP1P2: 1.757%. CN(CCc1cccs1)C(=O)Nc1cccc(S(C)(=O)=O)c1 read PfKRS1: -0.3872%; LiHisRS: 16.87%; TcHisRS: 9.392%; Leishmania in macrophages: 2.19%; ClpP1P2: -13.21%. Result for O=C(O)C(F)(F)F.O=C(O)C(F)(F)F.[H][C@@]12COC[C@]1([H])[C@H](OCc1csc(C)n1)CN2Cc1cccnc1 was Leishmania in macrophages: 21.07%. CN(C)c1ccc(C(=O)N2C[C@@H](CN3CCCCC3)[C@@H](CO)C2)cc1 gave PfKRS1: 6.273%; LiHisRS: 6.25%; TcHisRS: 8.939%; Leishmania in macrophages: 0.1935%; ClpP1P2: 2.172%.

Cc1ncc(CN2CCOC(CNc3cccnn3)C2)s1 (stereo not drawn) gave PfKRS1: 0.4499%; LiHisRS: 5.357%; TcHisRS: 4.611%; Leishmania in macrophages: 16.33%; ClpP1P2: -10.17%. Result for COCCNC(=O)Cn1cc(NC(=O)c2cc(Cl)c(Cl)n2C)cn1 was PfKRS1: 2.729%; LiHisRS: 26.58%; TcHisRS: 1.293%; Leishmania in macrophages: 17.69%; ClpP1P2: -11.61%. For CCc1ccc(CN2CCN(CCOC)[C@@H]3CS(=O)(=O)C[C@@H]32)cc1 the result was PfKRS1: 7.521%; LiHisRS: 22.22%; TcHisRS: 5.102%; ClpP1P2: -4.065%. For Cc1ccc(CN2CC[C@@H](N3CCOCC3)[C@@H]2Cc2cccnc2)o1.O=C(O)C(F)(F)F.O=C(O)C(F)(F)F.O=C(O)C(F)(F)F the result was Leishmania in macrophages: 20.89%. With CC(=O)N1CCC(C)(c2cc(C(=O)NCC3CC3)nc(C)n2)CC1 the screen gave PfKRS1: 1.054%; LiHisRS: 11.51%; TcHisRS: 7.28%; Leishmania in macrophages: 19.52%; ClpP1P2: -9.171%.

For reference, 2 entries once more:

Compound,PfKRS1,LiHisRS,TcHisRS,Leishmania in macrophages,ClpP1P2
O=C(O)C(F)(F)F.[H][C@@]12CN(C(=O)[C@H]3CCCO3)C[C@]1([H])C(=O)N(CCN1CCCC1)C2,-,-,-,2.778%,-
CCc1ccc(CN2CCN(CCOC)[C@@H]3CS(=O)(=O)C[C@@H]32)cc1,7.521%,22.22%,5.102%,-,-4.065%